For at least one compound, name, drawing or mass did not settle the structure.
Assays:
chondrocytes = assay: in vitro data on chondrocytes metabolism; format: cell-based; settings: compared to oleuropein
[1] = cited from earlier work

Row | Compound | efficacy on chondrocytes metabolism (chondrocytes) | antioxidant activity [1]
1 | OCCc1ccc(O)c(O)c1 [hydroxytyrosol] | higher efficacy compared to oleuropein | –
2 | CC=C1C(O)OC=C(C(=O)OC)C1CC(=O)OCCc1ccc(O)c(O)c1 (centres unmarked) [oleuropein aglycone, 3,4-dihydroxyphenylethanol-elenolic acid] | – | comparable to that of caffeic acid, oleuropein and hydroxytyrosol

Reference: patent US11452308B2, “Method of selecting a probiotic” (SOCIETE DES PRODUITS NESTLE S.A., priority 2017, dated 2022)
